Measured data: PubChem BioAssay AID504774 (Drosophila RNAi Screening Center, 2011)
The deposit covers about 23,000 reagents; shown is an unselected part of those that have a named target and a result. 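Values are quantile-normalised luminescence on an arbitrary scale; higher means more cells surviving MMS.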 A plus sign joins genes that one reagent is predicted to hit. Not all columns of the deposit are shown.

Assay: 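Fly genes whose loss alters survival after alkylation damage to DNA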 (primary screen)
Cell system: Drosophila Kc167 cells
Reagents: long dsRNA against Drosophila genes, about 0.25 µg dsRNA per well
Duration: about 6 days: 3 days knock-down, then 3 days with or without MMS
Treatment: methyl methanesulphonate 0.004% (w/v) for 3 days after knock-down
Measured: 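Viability in wells given MMS, read as ATP luminescence, normalised by quantiles plate by plate and averaged across replicates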
Reading the numbers: mean viability with MMS: higher = more surviving cells after MMS

gene | amplicon | mean viability with MMS
CSN1b (COP9 signalosome subunit 1b) | DRSC11108 | 3.37e6
Prat (Phosphoribosylamidotransferase) | DRSC16797 | 3.34e6
CG17237 | DRSC00491 | 3.71e6
Ilp6 (Insulin-like peptide 6) | DRSC17906 | 3.58e6
CG34193 | DRSC05665 | 3.63e6
Trs33 (TRAPP subunit 33) | DRSC15990 | 3.65e6
Tk (Tachykinin) | DRSC14954 | 3.40e6
Tk (Tachykinin) | DRSC21972 | 3.61e6
Klp59D (Kinesin-like protein at 59D) | DRSC04118 | 3.65e6
Eps-15 (Epidermal growth factor receptor pathway substrate clone 15) | DRSC04288 | 3.23e6
Mrm2 (Mitochondrial rRNA methyltransferase 2) | DRSC14310 | 3.41e6
CG6678 | DRSC16092 | 3.49e6
POSH (Plenty of SH3s) | DRSC07499 | 3.70e6
CG18213 | DRSC15316 | 3.67e6
Fancm (Fanconi anemia group M helicase) | DRSC16348 | 3.52e6
Gli (Gliotactin) | DRSC03332 | 3.63e6
CG9008 | DRSC01889 | 3.58e6
Hsp27 (Heat shock protein 27) | DRSC11190 | 3.54e6
CG14285 | DRSC14766 | 3.63e6
Polr2L (RNA polymerase II, I and III subunit L) | DRSC14630 | 3.33e6
spartin | DRSC12187 | 3.47e6
CG4554 | DRSC04473 | 3.32e6
CG44014 | DRSC14995 | 3.69e6
CG2889 | DRSC18236 | 3.63e6
sn (singed) | DRSC18834 | 3.72e6
TwdlF (TweedleF) | DRSC12225 | 3.63e6
CG31810 | DRSC01560 | 3.51e6
Rpn13 (Regulatory particle non-ATPase 13) | DRSC06379 | 3.45e6
CG2663 | DRSC12314 | 3.58e6
Vha16-4 + CG15614 | DRSC07321 | 3.54e6
nis | DRSC00290 | 3.78e6
swm (second mitotic wave missing) | DRSC02012 | 3.62e6
swm (second mitotic wave missing) | DRSC21831 | 2.47e6
CG7406 | DRSC20042 | 3.55e6
mof (males absent on the first) | DRSC18795 | 3.80e6
Ggt-1 (gamma-glutamyl transpeptidase) | DRSC19993 | 3.66e6
nvd (neverland) | DRSC22139 | 3.60e6
CG2260 | DRSC18223 | 3.46e6
MFS3 (Major Facilitator Superfamily Transporter 3) | DRSC00664 | 3.64e6
CG4325 | DRSC18516 | 2.86e6
CG4325 | DRSC23171 | 3.53e6
CG6418 | DRSC10633 | 3.22e6
MED31 (Mediator complex subunit 31) | DRSC12142 | 3.16e6
CG33341 | DRSC22887 | 3.41e6
CG16789 | DRSC15155 | 3.67e6
htk (hat-trick) | DRSC20029 | 3.30e6
htk (hat-trick) | DRSC20031 | 3.52e6
ppk13 (pickpocket 13) | DRSC02382 | 3.55e6
CG18131 | DRSC00517 | 3.07e6
CG18131 | DRSC22983 | 3.57e6
CG31601 | DRSC03678 | 3.41e6
trr (trithorax-related) | DRSC18845 | 3.33e6
trr (trithorax-related) | DRSC23290 | 3.13e6
Acsx1L (Acyl-CoA synthetase X1 L) | DRSC16014 | 3.41e6
CG1785 | DRSC18139 | 3.53e6
CG5787 | DRSC02895 | 3.64e6
CG30411 | DRSC04004 | 3.59e6
Tcs3 (Threonyl-carbamoyl synthesis 3) | DRSC10461 | 3.58e6
CG6163 | DRSC10595 | 3.98e6
CG14245 | DRSC14740 | 3.49e6
sotv + CG10731 | DRSC05930 | 3.53e6
sotv + CG10731 | DRSC05997 | 3.54e6
PIP5K59B (Phosphatidylinositol 4-phosphate 5-kinase 59B) | DRSC04290 | 3.50e6
PIP5K59B (Phosphatidylinositol 4-phosphate 5-kinase 59B) | DRSC04403 | 3.63e6
CG30279 (retired record) | DRSC22417 | 3.63e6
tous (testes of unusual size) | DRSC04464 | 3.73e6
Spn28Db (Serpin 28Db) | DRSC22033 | 3.61e6
CG8372 | DRSC03086 | 3.71e6

Looked up above.
Entry of CG9008 [DRSC01889] under “mean viability with MMS”: 3.58e6
Under “mean viability with MMS”, sotv + CG10731 [DRSC05997] reads 3.54e6
Under “mean viability with MMS”, sotv + CG10731 [DRSC05930] shows 3.53e6
Value for PIP5K59B (Phosphatidylinositol 4-phosphate 5-kinase 59B) [DRSC04403] in “mean viability with MMS”: 3.63e6
For “mean viability with MMS”, swm (second mitotic wave missing) [DRSC21831] reads 2.47e6
Under “mean viability with MMS”, Prat (Phosphoribosylamidotransferase) [DRSC16797] has 3.34e6
